Measured values as given in patent US8137705B2 (priority 2005, dated 2012).
Some entries share one result that the patent states for a list of compounds.

tested on: E. coli O157:H7; test: E. coli O157:H7 counts in water containing rumen content or feces treated with chemicals or chemical combinations; assay type: cell-based; conditions: tested individually at the printed concentrations, water containing rumen content (100:1), 21° C.

| Compound | reduction of E. coli O157:H7 within 20 min [log/ml] |
| --- | --- |
| CCCCCCCC(=O)O [0.05% caprylic acid, caprylic acid] | < 1.0 |
| acidic calcium sulfate | < 1.0 |
| CCCC(=O)O [0.5% butyric acid, butyric acid] | < 1.0 |
| CCC(=O)O [propionic acid] | < 1.0 |
| CC(O)C(=O)O (centres unmarked) [lactic acid] | < 1.0 |
